No constants are given. Whether binding was seen depends on the method and setting. Binding seen in cells or lysates may run through a third protein. Some entries that bind do so weakly or less than the wild type. Blank lines part the entries; values can stand above or below the molecule they belong to.
What was measured:
[1] = target: TEAD1 (mouse (endogenous in adult mouse heart)) (UniProt P30051); experiment: co-IP; TEAD1 precipitated with mouse-origin TEAD1 antibody (BD, 610923) from adult heart lysate of Vgll4 fl/fl and Vgll4 cKO (Myh6-Cre; Vgll4 fl/fl) mice; immunoblot of the precipitate
[2] = target: TEAD1 (mouse (endogenous in adult mouse heart)) (UniProt P30051); experiment: condition: only in control Vgll4 fl/fl hearts (VGLL4 present); co-IP; TEAD1 precipitated with mouse-origin TEAD1 antibody (BD, 610923) from adult heart lysate of control Vgll4 fl/fl mice (VGLL4 present in cardiomyocytes); immunoblot for YAP

Sequences of proteins named here, by UniProt entry; tags and fusion partners are left off.
UniProt P30051: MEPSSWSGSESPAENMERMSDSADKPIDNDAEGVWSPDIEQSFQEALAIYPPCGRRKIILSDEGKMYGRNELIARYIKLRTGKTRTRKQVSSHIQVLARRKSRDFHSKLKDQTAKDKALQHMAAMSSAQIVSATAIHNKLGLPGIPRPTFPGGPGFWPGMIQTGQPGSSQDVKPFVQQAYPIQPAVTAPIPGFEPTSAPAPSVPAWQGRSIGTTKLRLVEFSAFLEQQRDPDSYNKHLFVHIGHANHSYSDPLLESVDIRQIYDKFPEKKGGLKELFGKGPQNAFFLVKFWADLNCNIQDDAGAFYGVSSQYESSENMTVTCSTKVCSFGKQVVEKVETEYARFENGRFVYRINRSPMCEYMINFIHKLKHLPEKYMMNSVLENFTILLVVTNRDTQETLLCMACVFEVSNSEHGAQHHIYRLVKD
UniProt P46938: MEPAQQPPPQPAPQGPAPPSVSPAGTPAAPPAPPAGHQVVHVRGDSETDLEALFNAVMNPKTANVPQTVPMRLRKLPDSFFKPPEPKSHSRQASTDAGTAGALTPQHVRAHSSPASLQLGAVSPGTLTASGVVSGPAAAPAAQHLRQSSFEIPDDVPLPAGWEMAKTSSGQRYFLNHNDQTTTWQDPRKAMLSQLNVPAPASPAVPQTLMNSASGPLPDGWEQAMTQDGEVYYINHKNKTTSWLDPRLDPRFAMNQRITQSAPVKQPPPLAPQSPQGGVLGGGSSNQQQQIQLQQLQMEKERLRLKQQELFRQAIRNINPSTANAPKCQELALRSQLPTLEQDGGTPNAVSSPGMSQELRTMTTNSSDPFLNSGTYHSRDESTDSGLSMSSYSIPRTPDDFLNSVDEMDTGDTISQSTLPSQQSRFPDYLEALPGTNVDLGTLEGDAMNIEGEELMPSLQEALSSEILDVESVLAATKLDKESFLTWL

- binding [1]: binds
- binding [2]: no binding
Molecule: YAP (from UniProt P46938 1-488)

- binding [1]: binds
B1: Vestigial-like 4 (VGLL4) (protein, UniProt Q80V24 1-287)
chain: MLFMKMDLLNYQYLDKMNNNIGVLCYEGEASLRGEPRMQTLPVASALSSHRTGPPPISPSKRKFSMEPGDKDLDCENDHVSKMSRIFSPHLNKTVNGDCRRDPRERSRSPIERAAAPAVSLHGGHLYASLPSLMEQPLALTKNSSDTGRSAVERQQNRPSVITCASAGARNCNLSHCPIAHSGCSAPGSASYRRPPSATATCDPVVEEHFRRSLGKNYKEPEPAPNSVSITGSVDDHFAKALGDTWLQIKAAKDSASSSPESASRRGQPASPTAHMVSHSHSPSVVS
